Test results from PMC8363623.
These are yes or no findings as the source states them, for the method shown. In cells and extracts the contact can be indirect. Some entries that bind do so weakly or less than the wild type.

By UniProt entry, the sequences of proteins in these tests, tags left out.
UniProt P06700: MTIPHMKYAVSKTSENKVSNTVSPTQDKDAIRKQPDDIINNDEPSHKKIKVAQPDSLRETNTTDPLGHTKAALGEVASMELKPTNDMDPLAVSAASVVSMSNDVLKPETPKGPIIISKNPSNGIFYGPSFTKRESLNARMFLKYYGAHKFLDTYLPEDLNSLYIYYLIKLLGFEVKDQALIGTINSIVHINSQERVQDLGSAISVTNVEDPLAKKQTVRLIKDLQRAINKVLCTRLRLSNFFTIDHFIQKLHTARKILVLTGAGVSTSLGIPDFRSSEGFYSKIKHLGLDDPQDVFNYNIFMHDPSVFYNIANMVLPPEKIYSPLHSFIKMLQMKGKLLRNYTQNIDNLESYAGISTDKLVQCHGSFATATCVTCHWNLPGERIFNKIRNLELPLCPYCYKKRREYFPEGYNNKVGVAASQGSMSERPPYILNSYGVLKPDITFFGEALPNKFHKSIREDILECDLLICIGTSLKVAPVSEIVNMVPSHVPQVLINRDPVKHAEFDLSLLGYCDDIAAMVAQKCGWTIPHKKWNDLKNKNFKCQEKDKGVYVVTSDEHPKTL

What was measured:
[1] = target: T1, Heh1 (as in the co-immunoprecipitations of the supplementary figures) (S. cerevisiae) (UniProt Q03707); assay: co-IP; yeast cell lysates (50 mM Tris pH 7.5, 150 mM NaCl, 10% glycerol, 1 mM EDTA, 0.5% NP-40) on antiHA-sepharose, GFP-Trap or IgG-agarose beads, 1.5 h at 4 °C, immunoblot; cells also with cdc14-3 at 37 °C, phosphatase inhibitors, Net1 depletion, nur1Pmim, SUMO overexpression (WT, FAIA, KRall), Cdc48 mutants, STUbL deletions or I-PpoI rDNA damage
T1 sequence: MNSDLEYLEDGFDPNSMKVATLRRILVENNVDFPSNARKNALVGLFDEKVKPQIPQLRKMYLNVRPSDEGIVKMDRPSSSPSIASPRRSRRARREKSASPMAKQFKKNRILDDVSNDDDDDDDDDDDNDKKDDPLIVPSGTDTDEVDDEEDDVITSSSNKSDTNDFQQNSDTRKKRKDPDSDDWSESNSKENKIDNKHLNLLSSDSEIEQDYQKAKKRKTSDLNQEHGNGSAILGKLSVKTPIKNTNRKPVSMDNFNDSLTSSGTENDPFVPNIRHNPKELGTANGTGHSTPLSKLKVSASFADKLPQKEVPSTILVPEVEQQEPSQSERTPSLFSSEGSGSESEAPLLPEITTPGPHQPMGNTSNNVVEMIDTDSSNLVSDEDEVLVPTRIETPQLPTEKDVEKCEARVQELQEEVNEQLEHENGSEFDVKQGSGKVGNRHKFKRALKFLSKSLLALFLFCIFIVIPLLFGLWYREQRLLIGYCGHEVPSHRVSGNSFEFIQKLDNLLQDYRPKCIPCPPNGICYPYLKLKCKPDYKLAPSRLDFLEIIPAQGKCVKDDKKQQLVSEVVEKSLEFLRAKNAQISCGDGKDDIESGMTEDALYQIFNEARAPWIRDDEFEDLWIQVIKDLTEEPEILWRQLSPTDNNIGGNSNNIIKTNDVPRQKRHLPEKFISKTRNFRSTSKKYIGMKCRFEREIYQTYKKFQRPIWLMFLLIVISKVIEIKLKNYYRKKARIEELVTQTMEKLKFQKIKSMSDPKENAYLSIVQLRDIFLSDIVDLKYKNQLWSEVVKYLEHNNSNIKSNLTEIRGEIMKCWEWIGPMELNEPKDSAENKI

Sir2 (S. cerevisiae) = Sir2 (S. cerevisiae) (UniProt P06700); assay: as above

B1: Nur1 (as in the co-immunoprecipitations of the supplementary figures) (protein, UniProt Q12066 1-484)
chain: MGSNDLINEAYDDSEVVGEERESKSAWMKRWYQLLTSPLDLQLVINEKLEMINWDAYAKSLAKPLGNFLTILFFIIRLLQDNLIKPNYYKLNVKSGAFDLSKSNKLKEFDYLWEISSSFQNNNQFYAFQSWYFVTLRFLNNLFRFTIFILLSLNLYVSCKFMFGYFKTYNLFHLKKEFNSPNLTKHNLKDLSKEYYEDIYKQSLWSMLKHFFRGSRDDGPHVNQNEDEIFFQLRKWIPTNFMINLFVSFSPTAIVFLSFSDVSFTSAIAIVFHQYILDYIITKRFQRSVDDDLILSSAALQEYEDKHIMARINQCSNIDTLSSAMGTRSKTPRIFTTHSLCGEEIREVYNYEKREFEALPKMTESVPGSRETRIKDYGGISQVSDHQSHPIGFHYSPRMSPYYRDKVLDNNLAQSSSNENLEKGGAYLPNQDQNRPSKSLSPLRKTPLSARQKRFEGSEFNVLNKNDINSILRSPKKKKNYHKR
**Q.** What does the source list for B1?
**A.** binding [1]: binds; binding (Sir2 (S. cerevisiae)): binds
